# Measured values as given in the supplement of paper PMC12823440, “Inhibitors supercharge kinase turnover through native proteolytic circuits” (Nature, 2025).
# Chains of the proteins cited; added tags and fusions are not shown. Lines headed by an entry give the natural chain unless they say otherwise; changes in a name come on top.
# UniProt Q9UBF8: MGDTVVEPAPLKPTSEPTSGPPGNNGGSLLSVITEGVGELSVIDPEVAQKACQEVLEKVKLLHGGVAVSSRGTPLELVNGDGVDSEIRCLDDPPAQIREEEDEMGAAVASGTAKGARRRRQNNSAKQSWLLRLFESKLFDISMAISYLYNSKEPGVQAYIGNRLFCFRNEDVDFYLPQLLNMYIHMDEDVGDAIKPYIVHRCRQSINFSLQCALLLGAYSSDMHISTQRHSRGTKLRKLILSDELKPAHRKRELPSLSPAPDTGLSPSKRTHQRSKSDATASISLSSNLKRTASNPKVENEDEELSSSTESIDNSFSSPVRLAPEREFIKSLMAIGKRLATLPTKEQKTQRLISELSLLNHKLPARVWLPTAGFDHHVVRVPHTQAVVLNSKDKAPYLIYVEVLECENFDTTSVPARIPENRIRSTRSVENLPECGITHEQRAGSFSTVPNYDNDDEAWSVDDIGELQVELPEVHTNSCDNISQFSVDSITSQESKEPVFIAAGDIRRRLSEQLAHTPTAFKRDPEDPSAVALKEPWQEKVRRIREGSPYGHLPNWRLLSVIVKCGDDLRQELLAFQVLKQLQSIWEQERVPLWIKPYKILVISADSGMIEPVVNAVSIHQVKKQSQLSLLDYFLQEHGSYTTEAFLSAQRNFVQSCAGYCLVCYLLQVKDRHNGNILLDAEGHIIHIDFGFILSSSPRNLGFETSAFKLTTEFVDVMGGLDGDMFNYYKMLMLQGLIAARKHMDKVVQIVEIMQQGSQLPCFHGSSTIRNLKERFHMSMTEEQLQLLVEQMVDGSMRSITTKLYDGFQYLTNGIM
# Where a name gives a salt, the structure may show the parent alone. The list shows a part of the results. The calls rarely recur for the same compound in another form.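 In K562 cells expressing nanoluciferase-fused kinases, luminescence was recorded at 4 h intervals between 2 and 18 h, normalized as percent of control with DMSO at 100% and a positive control at 0%. A significant (2 sigma) signal drop marks a time point as decreased. The authors' rule for a hit is not shown and takes in more than the number of time points.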
# Biological target: PIK4CB (UniProt Q9UBF8)
# Assay: number of time points (of 5) at which kinase-Nluc abundance scored as decreased, DMSO-normalised (count); higher = more persistent destabilization
# Settings: K562; 2-18 h
row,SMILES,number of time points
1,CN1C(=O)[C@@H](NC(=O)c2n[nH]c(Cc3ccccc3)n2)COc2ccccc21 (10 µM),0
2,O=C1NC(=Nc2c(Cl)cccc2Cl)S/C1=C\c1ccc2nccnc2c1 (2.5 µM),0
3,Cc1cccc(-c2[nH]c(C(C)(C)C)nc2-c2ccc3nccnc3c2)n1 (10 µM),0
4,O=C(Nc1cccc(C(F)(F)F)c1)c1cccc2cc(Oc3cc(CO)ncn3)ccc12 (10 µM),0
5,CNc1cc(Nc2cccn(-c3ccccn3)c2=O)nn2c(C(=O)N[C@@H]3C[C@@H]3F)cnc12 (2.5 µM),0
6,Cc1ccn2c(C(=O)C(=O)c3ccccc3)c(-c3ccccc3)nc2c1 (10 µM),0
7,COc1cc(N2CCOCC2)ccc1Nc1ncc(Cl)c(Nc2ccccc2NS(C)(=O)=O)n1 (2.5 µM),0
8,O=C(NC1CCOCC1)c1ccc(-c2cc(-c3c[nH]nc3-c3ccccn3)ccn2)cc1 (10 µM),0
9,O=C1NC(=O)/C(=C/c2ccc3nccc(-c4ccncc4)c3c2)S1 (10 µM),0
10,Cc1ncc(NC(=O)NC2c3ccccc3-c3ccccc32)c(-c2ccccc2)n1 (10 µM),0
11,CC(C)C[C@@H](C(=O)Nc1ccn(C[C@@H](O)CO)n1)N1CC(Oc2ccccc2Cl)=CC1=O [Dorzagliatin] (10 µM),0
12,O=C1O[C@H]([C@@H](O)CO)C(O)=C1OP(=O)(O)O [2-Phospho-L-ascorbic acid (trisodium)] (10 µM),0
13,C[C@@H]1CC(=O)c2c(ccc3c2C(=O)c2cccc(O)c2C3=O)C1 [Ochromycinone] (10 µM),0
14,Cc1c(-c2ccc(C(N)=O)c3[nH]c4cc(C(C)(C)O)ccc4c23)cccc1-n1cnc2ccccc2c1=O (2.5 µM),0
15,CC(C)(C)n1nc(Cc2ccccc2O)c2c(N)ncnc21 (10 µM),0
16,C=CC(=O)N1C(=O)CC(c2ccc(F)cc2)Sc2ccccc21 (stereo not drawn) [GSK-3β inhibitor 3] (10 µM),0
17,CCc1ccc(OCC(=O)Nc2ccc(F)c([N+](=O)[O-])c2)cc1 (10 µM),0
18,CN(C)c1nc2c(Br)c(Br)c(Br)c(Br)c2[nH]1 (10 µM),0
19,Nc1ncnc2c1c(-c1ccc(Oc3ccccc3)cc1)nn2C1CCN(CCOCCOCCOc2ccc3c(c2)CN(C2CCC(=O)NC2=O)C3=O)CC1 (centres undefined) (2.5 µM),0
20,Cc1cnc(NC2CCOCC2)nc1-n1cnc(C(=O)N[C@H](CN)c2cc(F)cc(Cl)c2)c1 (10 µM),0

# A run of entries from further up, as a working copy:
row,SMILES,number of time points
11,CC(C)C[C@@H](C(=O)Nc1ccn(C[C@@H](O)CO)n1)N1CC(Oc2ccccc2Cl)=CC1=O [Dorzagliatin] (10 µM),0
12,O=C1O[C@H]([C@@H](O)CO)C(O)=C1OP(=O)(O)O [2-Phospho-L-ascorbic acid (trisodium)] (10 µM),0

# Remaining list, next part:

row,SMILES,number of time points
1,FC(F)(F)c1ccc(/C=C/c2nc(COc3ccc(CCCCn4ccnn4)cc3)co2)cc1 [Mubritinib] (10 µM),0
2,Cc1cc2sc(NC(=O)Cc3ccccc3)nc2cc1Cl (10 µM),0
3,O=C(CNc1cccc(Cl)c1)NC1CCCN(c2ncnc3[nH]ccc23)C1 (centres undefined) (10 µM),0
4,Oc1ccc(/C=C/c2cc(O)cc(F)c2)cc1 [Resveratrol analog 1] (10 µM),0
5,CC/C(=N\NC(=O)c1ccnc(NCCCN2CCOCC2)c1)c1ccc(Cl)cc1O (2.5 µM),0
6,O[C@@H]1CO[C@H]2[C@@H]1OC[C@H]2Oc1nc2nc(-c3ccc(-c4ccccc4)cc3)c(Cl)cc2[nH]1 (10 µM),0
7,Nc1c(C(=O)NCc2ccc(C(=O)NCCCC3CCCCC3)cc2)cnn1-c1ccccc1 (2.5 µM),0
8,Cc1ccc(C(=O)Nc2sc(Nc3ccccc3)nc2C(N)=O)cc1 (10 µM),0
9,COc1cc(N(C)CCN(C)C)c(N)cc1Nc1nccc(-c2cn(C)c3ccccc23)n1 [Mutated EGFR-IN-1] (10 µM),0
10,CCN(CC)c1cc2oc(=O)c(-c3nc4ccccc4o3)cc2cc1C (2.5 µM),0
11,Cn1cc(-c2cnc3cnn(S(=O)(=O)c4cnc5ccc(-c6cnn(C)c6)cn45)c3c2)cn1 [Glumetinib] (10 µM),0
12,Cc1ccc(NC(=O)c2ccnc(C(F)(F)F)c2)cc1-c1cc(OCCO)nc(N2CCOCC2)c1 (10 µM),0
13,C=CC(=O)Nc1cccc(-c2cccc3cnc(Nc4ccc(N5CCN(CCO)CC5)c(F)c4F)nc23)c1 [Olafertinib] (2.5 µM),0
14,CC(C)(C[C@H](N)C(=O)O)C(F)F [NV-5138 (hydrochloride)] (10 µM),0
15,Cc1cc(C)nc(NS(=O)(=O)c2ccc(NC(=S)NC(=O)COc3ccc(Br)cc3Cl)cc2)n1 (2.5 µM),0
16,CC[C@@](C)(Nc1ccnc(-c2c[nH]c3ncccc23)n1)C(=O)NCC(F)(F)F [Decernotinib] (10 µM),0
17,COc1cc2ncnc(-n3nc(-c4ccccn4)nc3N)c2cc1OC (10 µM),0
18,O=C1/C(=C\c2ccc(Cl)cc2)C=C(c2ccccc2)N1c1ccc(O)cc1 (2.5 µM),0
19,Oc1ccc(/C=C/c2cc(O)cc(O)c2)cc1 [Resveratrol] (10 µM),0
